{
  "source": "patent US10646496B2",
  "about": "“Joint application of statin and adrenocortical hormone for treating chronic subdural hematoma” (priority 2016, dated 2020)",
  "origin": "cited, not measured here",
  "key": {"[1]": {"system": "chronic subdural hematoma", "settings": "dexamethasone group of 10 patients; cited from earlier work"}, "[2]": {"system": "subdural hematoma", "settings": "rat model of subdural hematoma; cited from earlier work"}, "[3]": {"system": "chronic subdural hematoma", "settings": "dexamethasone continuously administered for 2 weeks upon the surgical operation; cited from earlier work"}},
  "note": "At least one structure is not confirmed: it was looked up by name or label, or the drawing left a doubt.",
  "data": [
    {"smiles": "C[C@@H]1C[C@H]2[C@@H]3CCC4=CC(=O)C=C[C@]4(C)[C@@]3(F)[C@@H](O)C[C@]2(C)[C@@]1(O)C(=O)CO", "note": "[dexamethasone]", "values": [
      {"measurement": "patients transferred to the surgical treatment", "setting": "[1]", "value": 1, "unit": "patient"},
      {"measurement": "formation of a new hematoma capsule", "setting": "[2]", "value": "inhibits"},
      {"measurement": "recurrences", "setting": "[3]", "value": "significantly reduced"}
    ]}
  ]
}
